The record followed here is ChEMBL document CHEMBL3396948, “Dibenzosuberyl substituted polyamines and analogs of clomipramine as effective inhibitors of trypanothione reductase; molecular docking, and assessment of trypanocidal activities” (Bioorg Med Chem, 2015).

Sequences of proteins named here, by UniProt entry; tags and fusion partners are left off. A change or cut given only in a name is not applied to a line headed by its entry.
UniProt P39051: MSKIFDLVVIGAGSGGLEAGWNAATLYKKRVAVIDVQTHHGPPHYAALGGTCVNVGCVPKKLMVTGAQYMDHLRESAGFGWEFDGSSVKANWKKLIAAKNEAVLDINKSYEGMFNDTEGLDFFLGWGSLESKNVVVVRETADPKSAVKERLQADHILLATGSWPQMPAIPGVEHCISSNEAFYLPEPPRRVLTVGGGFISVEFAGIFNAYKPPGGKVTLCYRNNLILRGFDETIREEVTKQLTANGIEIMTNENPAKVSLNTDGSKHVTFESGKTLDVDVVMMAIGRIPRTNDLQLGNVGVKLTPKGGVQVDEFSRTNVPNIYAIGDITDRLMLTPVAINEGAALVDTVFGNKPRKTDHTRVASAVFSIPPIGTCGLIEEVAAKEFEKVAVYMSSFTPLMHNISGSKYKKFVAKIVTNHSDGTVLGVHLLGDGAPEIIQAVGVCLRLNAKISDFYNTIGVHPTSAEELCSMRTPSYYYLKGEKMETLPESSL

The assay has as its target Trypanothione reductase (Trypanosoma brucei brucei, UniProt P39051). Description: Inhibition of recombinant Trypanosoma brucei brucei strain S427 trypanothione reductase assessed as reduction of trypanothione disulphide by 412 nm assay.

With `CN(C)CCCN1c2ccccc2CCc2ccc(Cl)cc21` [CLOMIPRAMINE], the IC50 (commonly the concentration that inhibits the measured activity by half) is 3.4 µM.
